These are yes or no findings as the source states them, for the method shown. Binding seen in cells or lysates may run through a third protein. Some entries that bind do so weakly or less than the wild type.

Chains of the proteins cited; added tags and fusions are not shown. Lines headed by an entry give the natural chain unless they say otherwise; changes in a name come on top. A line that says so, or that is headed by a name, gives the form on record, which may keep a tag or linker. Residues count along the entry.
UniProt O55144: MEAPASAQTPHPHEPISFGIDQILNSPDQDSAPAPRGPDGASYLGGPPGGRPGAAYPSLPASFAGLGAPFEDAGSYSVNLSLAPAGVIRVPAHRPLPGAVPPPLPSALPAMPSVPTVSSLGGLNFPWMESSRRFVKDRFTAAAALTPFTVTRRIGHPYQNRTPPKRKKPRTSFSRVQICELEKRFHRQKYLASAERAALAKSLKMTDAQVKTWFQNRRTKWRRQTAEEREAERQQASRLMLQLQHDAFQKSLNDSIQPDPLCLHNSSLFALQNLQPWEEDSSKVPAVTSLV
Tlx3ΔC-Myc, C-terminal deletion mutant of Tlx3 (amino acids 1–226): residues 1-226 of O55144
Tlx3ΔHD-Myc, homeodomain deletion mutant of Tlx3 (lacks amino acids 166–226) (O55144, form named): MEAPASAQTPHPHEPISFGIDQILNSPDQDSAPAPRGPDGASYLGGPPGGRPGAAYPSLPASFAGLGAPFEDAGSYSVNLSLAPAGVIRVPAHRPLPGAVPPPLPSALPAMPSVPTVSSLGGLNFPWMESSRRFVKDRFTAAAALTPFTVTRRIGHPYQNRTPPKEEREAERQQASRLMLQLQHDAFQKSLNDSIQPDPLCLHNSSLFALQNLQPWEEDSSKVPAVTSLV
UniProt P45481: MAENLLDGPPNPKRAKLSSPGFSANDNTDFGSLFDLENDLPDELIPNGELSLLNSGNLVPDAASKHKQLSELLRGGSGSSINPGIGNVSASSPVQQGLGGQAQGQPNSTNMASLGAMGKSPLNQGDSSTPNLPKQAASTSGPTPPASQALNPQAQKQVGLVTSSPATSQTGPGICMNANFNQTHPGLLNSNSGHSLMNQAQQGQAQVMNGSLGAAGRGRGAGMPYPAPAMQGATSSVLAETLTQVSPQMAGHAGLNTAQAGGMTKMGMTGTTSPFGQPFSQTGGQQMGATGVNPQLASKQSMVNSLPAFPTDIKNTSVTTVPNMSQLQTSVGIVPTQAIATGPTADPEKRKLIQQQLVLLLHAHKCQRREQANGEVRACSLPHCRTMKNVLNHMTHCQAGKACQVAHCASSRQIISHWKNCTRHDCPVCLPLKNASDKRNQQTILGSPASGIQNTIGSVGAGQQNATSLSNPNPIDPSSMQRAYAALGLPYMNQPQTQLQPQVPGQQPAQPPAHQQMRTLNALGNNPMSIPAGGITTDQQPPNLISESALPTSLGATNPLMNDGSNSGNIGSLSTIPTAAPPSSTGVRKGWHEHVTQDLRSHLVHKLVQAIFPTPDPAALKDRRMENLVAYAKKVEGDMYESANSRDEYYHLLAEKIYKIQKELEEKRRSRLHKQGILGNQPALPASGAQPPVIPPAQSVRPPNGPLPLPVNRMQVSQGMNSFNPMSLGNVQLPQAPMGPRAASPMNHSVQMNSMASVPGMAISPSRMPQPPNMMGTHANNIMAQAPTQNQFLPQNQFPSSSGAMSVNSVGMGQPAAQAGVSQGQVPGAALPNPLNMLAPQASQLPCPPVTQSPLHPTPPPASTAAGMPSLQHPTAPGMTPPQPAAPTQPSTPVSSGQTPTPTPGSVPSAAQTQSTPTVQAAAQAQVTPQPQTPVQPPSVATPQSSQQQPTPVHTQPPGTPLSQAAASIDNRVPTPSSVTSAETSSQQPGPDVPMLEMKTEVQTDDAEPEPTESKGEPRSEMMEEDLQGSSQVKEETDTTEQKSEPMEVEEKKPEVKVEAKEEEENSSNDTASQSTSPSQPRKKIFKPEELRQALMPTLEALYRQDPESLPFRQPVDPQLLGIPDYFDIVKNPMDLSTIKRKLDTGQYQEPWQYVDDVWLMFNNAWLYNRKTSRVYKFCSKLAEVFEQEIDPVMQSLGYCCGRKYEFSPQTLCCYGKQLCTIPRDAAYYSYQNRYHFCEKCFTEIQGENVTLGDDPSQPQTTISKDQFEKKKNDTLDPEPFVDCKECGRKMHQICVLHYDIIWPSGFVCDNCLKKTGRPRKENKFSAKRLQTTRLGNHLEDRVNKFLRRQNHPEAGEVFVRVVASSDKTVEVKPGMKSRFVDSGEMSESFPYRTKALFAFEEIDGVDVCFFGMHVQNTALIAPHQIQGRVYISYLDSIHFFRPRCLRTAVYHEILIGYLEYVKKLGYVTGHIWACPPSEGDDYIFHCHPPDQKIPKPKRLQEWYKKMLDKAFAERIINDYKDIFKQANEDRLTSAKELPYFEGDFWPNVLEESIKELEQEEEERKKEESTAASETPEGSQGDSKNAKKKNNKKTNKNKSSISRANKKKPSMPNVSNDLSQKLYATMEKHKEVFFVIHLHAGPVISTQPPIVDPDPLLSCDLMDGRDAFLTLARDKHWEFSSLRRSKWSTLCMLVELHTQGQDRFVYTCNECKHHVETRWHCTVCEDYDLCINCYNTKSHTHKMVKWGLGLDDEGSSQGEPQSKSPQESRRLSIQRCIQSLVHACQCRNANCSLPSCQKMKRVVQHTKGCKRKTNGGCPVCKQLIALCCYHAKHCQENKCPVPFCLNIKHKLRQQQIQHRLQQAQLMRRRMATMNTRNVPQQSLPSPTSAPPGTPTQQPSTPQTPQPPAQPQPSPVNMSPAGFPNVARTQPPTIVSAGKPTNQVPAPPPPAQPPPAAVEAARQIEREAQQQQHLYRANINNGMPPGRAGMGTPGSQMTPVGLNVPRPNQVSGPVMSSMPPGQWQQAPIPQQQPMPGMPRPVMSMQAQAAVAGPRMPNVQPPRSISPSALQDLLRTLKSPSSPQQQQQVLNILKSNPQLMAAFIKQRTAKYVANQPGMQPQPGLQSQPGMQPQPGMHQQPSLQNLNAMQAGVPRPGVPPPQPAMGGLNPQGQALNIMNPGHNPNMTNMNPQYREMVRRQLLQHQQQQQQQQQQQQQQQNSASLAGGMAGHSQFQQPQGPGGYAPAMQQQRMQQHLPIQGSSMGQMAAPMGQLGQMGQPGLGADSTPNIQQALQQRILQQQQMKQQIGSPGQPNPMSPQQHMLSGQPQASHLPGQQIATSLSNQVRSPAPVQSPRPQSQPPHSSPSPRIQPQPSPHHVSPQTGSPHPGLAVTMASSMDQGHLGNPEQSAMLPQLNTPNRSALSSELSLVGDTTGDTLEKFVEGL

Consider one substance from paper PMC4530954.

The target in experiment [1] is Tlx3-W127G-Myc, point mutant in the Pbx interaction motif of Tlx3 (mouse) (UniProt O55144). The experiment is described as follows: co-IP; HEK293 triply transfected with Pbx3 (3xFLAG), a Tlx3-Myc construct and CBP; whole-cell lysate; IP anti-Myc and blot anti-CBP, or IP anti-CBP and blot anti-Myc; 75 mM NaCl, 6% glycerol, 1% NP-40, 4°C overnight.
For experiment [2], the target named is Tlx3ΔC-Myc, C-terminal deletion mutant of Tlx3 (amino acids 1–226) (mouse) (UniProt O55144). The description is as above.
Experiment [3] concerns the target Tlx3ΔHD-Myc, homeodomain deletion mutant of Tlx3 (lacks amino acids 166–226) (mouse) (UniProt O55144). The description is as above.
Experiment [4] has as its target Tlx3-W127G-Myc, point mutant in the Pbx interaction motif of Tlx3 (mouse) (UniProt O55144). The experiment is described as follows: co-IP; HEK293 cotransfected with a Tlx3-Myc construct and CBP, no Pbx3; whole-cell lysate 40 h after transfection; IP anti-Myc and blot anti-CBP, or IP anti-CBP and blot anti-Myc; 75 mM NaCl, 6% glycerol, 1% NP-40, 4°C overnight.

As for “CREB-binding protein (CBP), full length, from pRc/RSV-CBP (from UniProt P45481 1-2441)”, the binding entry was “binds” in experiment [1], “binds” in experiment [2], “no binding” in experiment [3] and “binds weakly” in experiment [4].
